System: ACHN cell line
Assay: drug screen of the SelleckChem kinase inhibitor library with and without 5 uM SU-329, Cell-Titer Glo after 5 days
Format: cell-based
Details: kinase inhibitor at 200 nM with and without 5 uM SU329

| Structure (SMILES) | log2fc |
| --- | --- |
| Cc1ccccc1-n1c(Cn2nc(-c3cccc(O)c3)c3c(N)ncnc32)nc2cccc(C)c2c1=O [PIK-294] | 0.04742 |
| Cc1nc2c(-c3cnc(N)nc3)nc(N3CCOCC3)nc2n1C(C)C [VS-5584 (SB2343)] | −0.3679 |
